The record followed here is paper PMC10533593 (Molecular Neurobiology, 2023).

Amino acid sequences for entries named in this document (tags omitted).
UniProt P08913: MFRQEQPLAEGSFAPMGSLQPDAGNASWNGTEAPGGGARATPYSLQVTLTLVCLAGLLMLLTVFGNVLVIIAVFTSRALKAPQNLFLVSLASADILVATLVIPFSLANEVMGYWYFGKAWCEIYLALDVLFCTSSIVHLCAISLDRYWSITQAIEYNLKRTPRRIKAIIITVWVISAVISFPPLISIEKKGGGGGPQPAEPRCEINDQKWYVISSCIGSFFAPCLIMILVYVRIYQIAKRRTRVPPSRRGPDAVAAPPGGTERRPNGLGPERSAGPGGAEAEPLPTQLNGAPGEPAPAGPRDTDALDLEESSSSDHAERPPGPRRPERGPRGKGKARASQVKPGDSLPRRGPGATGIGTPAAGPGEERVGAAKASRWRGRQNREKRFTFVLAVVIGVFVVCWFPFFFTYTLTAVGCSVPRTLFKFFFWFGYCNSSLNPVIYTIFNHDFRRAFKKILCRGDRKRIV
UniProt P35348: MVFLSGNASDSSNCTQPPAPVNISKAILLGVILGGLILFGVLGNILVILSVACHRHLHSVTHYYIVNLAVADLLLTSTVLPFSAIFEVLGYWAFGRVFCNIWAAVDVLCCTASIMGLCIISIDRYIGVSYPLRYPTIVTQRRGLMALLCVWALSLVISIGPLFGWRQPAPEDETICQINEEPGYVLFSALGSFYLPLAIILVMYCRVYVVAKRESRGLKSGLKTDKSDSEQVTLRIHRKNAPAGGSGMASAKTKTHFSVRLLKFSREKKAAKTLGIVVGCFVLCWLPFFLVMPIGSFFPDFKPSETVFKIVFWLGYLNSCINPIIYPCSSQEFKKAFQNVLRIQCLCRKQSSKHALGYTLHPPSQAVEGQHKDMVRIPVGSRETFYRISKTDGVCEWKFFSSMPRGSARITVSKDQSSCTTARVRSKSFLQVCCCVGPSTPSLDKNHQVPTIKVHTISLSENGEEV
UniProt P32121: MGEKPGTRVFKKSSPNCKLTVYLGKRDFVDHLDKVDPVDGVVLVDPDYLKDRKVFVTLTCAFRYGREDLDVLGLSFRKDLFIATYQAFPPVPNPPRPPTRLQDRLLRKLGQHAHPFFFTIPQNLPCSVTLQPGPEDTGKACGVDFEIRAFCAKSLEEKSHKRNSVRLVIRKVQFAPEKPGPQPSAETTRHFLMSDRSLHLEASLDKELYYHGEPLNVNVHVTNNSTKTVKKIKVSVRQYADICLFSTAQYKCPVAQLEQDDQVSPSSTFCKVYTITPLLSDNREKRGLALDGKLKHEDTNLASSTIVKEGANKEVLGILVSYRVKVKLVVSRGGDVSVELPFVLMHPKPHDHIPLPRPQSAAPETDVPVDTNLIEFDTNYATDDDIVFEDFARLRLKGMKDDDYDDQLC

Results are given in words; binding and its absence hold for the method and conditions named. In cells and extracts the contact can be indirect. Some entries that bind do so weakly or less than the wild type.

In test [1] the target is human α2A adrenoceptor fused to Rluc (human) (UniProt P08913). Briefly: FRET or BRET; BRET saturation in intact HEK-293T cells: constant amount of cDNA of the Rluc-fused receptor, increasing amounts of cDNA of the YFP-fused receptor; coelenterazine H 5 μM; HBSS with 0.1% glucose; single-phase saturation fit. A general note: BRET reads energy transfer from a luciferase to a nearby fluorophore.

The target of test [2] is human α1A adrenoreceptor fused to Rluc (human) (UniProt P35348). The test is described as above.
Test [3] concerns the target human α1A adrenoreceptor fused to YFP (human) (UniProt P35348). As to the kind of experiment: FRET or BRET; ligand-induced BRET between β-arrestin-2-Rluc and α1AR-YFP in intact HEK-293T cells co-transfected with non-fused D4.4R or D4.7R; read 7 min after drug.

Turning to “human α1A adrenoreceptor fused to YFP (from UniProt P35348 1-466)”, in test [1], the binding entry is “no binding”. As for “human α2A adrenoceptor fused to YFP (from UniProt P08913 1-465) (receptor)”, in test [2], the binding entry is “no binding”.

As to “β-arrestin-2 fused to Rluc (from UniProt P32121 1-409)”, the binding entry in test [3] is recorded as “binds”.
